Reference: publication PMC8384158
Results are given in words; binding and its absence hold for the method and conditions named. Binding seen in cells or lysates may run through a third protein. Some binding calls cover weakened binding; strength is not graded here.

Chains of the proteins cited; added tags and fusions are not shown. Residues count along the entry.
UniProt P11021, residues 19-654: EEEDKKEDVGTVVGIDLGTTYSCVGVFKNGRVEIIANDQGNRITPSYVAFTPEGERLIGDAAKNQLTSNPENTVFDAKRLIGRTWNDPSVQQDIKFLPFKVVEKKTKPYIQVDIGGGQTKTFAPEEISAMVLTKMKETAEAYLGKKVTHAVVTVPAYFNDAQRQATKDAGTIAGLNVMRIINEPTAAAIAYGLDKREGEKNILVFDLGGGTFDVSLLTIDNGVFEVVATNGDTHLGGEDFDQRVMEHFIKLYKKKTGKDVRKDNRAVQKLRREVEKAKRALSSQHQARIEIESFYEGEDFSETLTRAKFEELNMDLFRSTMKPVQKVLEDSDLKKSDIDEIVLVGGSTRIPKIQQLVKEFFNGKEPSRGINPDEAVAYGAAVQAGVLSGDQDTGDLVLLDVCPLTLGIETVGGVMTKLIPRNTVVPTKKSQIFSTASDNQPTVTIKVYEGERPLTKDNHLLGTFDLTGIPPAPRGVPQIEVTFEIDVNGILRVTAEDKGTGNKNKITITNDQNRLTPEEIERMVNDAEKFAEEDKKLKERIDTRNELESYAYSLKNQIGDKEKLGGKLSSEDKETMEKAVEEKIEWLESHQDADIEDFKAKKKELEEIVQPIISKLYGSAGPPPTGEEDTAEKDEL
UniProt P0DMV8: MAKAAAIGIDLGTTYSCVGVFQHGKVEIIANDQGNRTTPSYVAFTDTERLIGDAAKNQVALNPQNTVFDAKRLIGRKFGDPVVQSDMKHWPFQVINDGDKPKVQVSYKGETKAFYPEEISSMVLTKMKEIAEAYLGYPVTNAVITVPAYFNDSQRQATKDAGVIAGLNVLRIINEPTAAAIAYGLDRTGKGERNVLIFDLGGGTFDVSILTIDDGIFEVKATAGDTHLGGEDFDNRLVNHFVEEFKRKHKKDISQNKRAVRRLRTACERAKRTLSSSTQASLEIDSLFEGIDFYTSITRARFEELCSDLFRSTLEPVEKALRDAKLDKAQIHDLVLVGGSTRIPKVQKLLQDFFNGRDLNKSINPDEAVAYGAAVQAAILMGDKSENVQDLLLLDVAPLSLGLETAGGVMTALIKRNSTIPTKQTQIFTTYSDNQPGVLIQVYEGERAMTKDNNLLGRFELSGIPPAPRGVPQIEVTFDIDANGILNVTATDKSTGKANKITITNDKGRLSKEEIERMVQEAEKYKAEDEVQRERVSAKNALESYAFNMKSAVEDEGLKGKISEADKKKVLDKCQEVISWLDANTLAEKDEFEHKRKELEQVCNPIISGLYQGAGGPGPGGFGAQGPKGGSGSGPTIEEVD
UniProt P30101, residues 25-505: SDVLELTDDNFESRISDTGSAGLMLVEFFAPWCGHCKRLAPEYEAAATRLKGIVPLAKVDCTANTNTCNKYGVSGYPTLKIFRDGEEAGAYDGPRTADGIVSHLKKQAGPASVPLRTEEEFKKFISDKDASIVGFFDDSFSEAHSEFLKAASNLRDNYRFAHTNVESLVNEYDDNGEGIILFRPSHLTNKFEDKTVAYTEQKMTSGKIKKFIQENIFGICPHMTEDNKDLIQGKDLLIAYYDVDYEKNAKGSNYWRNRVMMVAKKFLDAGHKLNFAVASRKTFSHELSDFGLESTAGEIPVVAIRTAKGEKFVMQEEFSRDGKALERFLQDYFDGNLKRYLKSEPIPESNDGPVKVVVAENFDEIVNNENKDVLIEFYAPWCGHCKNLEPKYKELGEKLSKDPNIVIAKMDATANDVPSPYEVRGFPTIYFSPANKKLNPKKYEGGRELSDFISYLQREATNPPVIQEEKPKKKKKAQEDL
UniProt P54727: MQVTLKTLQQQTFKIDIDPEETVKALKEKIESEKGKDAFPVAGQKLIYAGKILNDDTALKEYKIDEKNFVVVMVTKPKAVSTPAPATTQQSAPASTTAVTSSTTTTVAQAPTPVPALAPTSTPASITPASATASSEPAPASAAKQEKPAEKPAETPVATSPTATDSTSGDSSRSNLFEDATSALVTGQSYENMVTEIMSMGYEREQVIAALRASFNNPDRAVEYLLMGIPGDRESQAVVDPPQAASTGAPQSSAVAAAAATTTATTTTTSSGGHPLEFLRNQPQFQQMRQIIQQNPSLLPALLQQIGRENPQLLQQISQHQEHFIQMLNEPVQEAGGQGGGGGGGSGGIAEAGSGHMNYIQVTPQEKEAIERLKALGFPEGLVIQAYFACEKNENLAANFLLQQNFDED

Experiments:
[1] = molecular target: T1, TAP–Bag-1L (human) (UniProt Q99933); assay: pull-down; MCF-7 cells transfected with TAP–Bag-1 isoform; 500 μg lysate on IgG Sepharose overnight at 4°C, released with AcTEV protease; bound fraction immunoblotted
T1 sequence: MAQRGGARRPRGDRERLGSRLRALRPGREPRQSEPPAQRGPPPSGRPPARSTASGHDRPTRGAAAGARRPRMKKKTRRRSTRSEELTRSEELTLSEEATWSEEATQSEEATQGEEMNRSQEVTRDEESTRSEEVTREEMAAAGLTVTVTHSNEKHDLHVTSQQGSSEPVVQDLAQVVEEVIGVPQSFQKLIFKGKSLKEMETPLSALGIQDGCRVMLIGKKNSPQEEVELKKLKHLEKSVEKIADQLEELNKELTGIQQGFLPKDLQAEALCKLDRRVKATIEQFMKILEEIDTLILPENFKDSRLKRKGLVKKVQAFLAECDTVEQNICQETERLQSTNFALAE

[2] = molecular target: T2, TAP–Bag-1S (human) (UniProt Q99933); assay: as above
T2 sequence: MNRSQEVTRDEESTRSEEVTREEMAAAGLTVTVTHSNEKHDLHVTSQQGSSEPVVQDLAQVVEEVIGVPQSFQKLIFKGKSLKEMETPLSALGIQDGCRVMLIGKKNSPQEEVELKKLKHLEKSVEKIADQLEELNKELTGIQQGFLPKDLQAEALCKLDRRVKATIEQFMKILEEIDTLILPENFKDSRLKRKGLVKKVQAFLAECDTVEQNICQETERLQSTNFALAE

[3] = molecular target: T1, TAP–Bag-1L (human); assay: pull-down; MCF-12A cells transfected with TAP–Bag-1 isoform; 500 μg lysate on IgG Sepharose overnight at 4°C, released with AcTEV protease; bound fraction immunoblotted
[4] = molecular target: T2, TAP–Bag-1S (human); assay: as above
[5] = molecular target: T3, Bag-1 (endogenous) (human (endogenous in MCF-7, MCF-12A and breast tissue)) (UniProt Q99933); assay: co-IP; breast tumor and neighboring normal tissue lysates (12 patients, T-PER extraction, pre-cleaned with protein A/G beads); monoclonal α-Bag-1 on Dynabeads Protein G overnight at 4°C; immunoblot
T3 sequence: T1 sequence

[6] = molecular target: T3, Bag-1 (endogenous) (human (endogenous in MCF-7, MCF-12A and breast tissue)); assay: co-IP; untransfected MCF-7 and MCF-12A cells; 250 μg extract with monoclonal α-Bag-1 on Dynabeads Protein G overnight at 4°C; uncoupled beads as control; immunoblot

Measured: binding

BiP (from UniProt P11021 19-654)
binds: [1] | [2]

Calreticulin (from UniProt P27797 18-417)
binds: [1] | [2] | [3] | [4]

Hsp70 (from UniProt P0DMV8 1-641)
binds: [1] | [2] | [5]

PDIA3 (from UniProt P30101 25-505)
binds: [1] | [2]

Rad23B (from UniProt P54727 1-409)
binds: [1] | [2] | [5] | [6]

VCP/p97 (from UniProt P55072 1-806)
binds: [1] | [2] | [5] | [6]
